From patent US11203602B2 (OnKure, Inc., priority 2016, dated 2021)

Assay: general procedure: solution-phase peptide synthesis; HATU/DIPEA
Conditions: late stage modification step
[1] = hydrochloride, benzenesulfonate, oxalate

Row | Substance | step yield [1] | other results
1 | (R)—S-((E)-4-((7S,10S)-7-isopropyl-4,4-dimethyl-2,5,8,12-tetraoxo-9-oxa-16-thia-3,6,13,18-tetraazabicyclo[13.2.1]octadeca-1(17),15(18)-dien-10-yl)but-3-en-1-yl) 2-amino-3-methylbutanethioate Hydrochloride |  | step yield (hydrochloride): 26% yield
2 | S-((E)-4-((7S,10S)-7-isopropyl-4,4-dimethyl-2,5,8,12-tetraoxo-9-oxa-16-thia-3,6,13,18-tetraazabicyclo[13.2.1]octadeca-1(17),15(18)-dien-10-yl)but-3-en-1-yl) 2-(dimethylamino)ethanethioate | 29% yield | 
3 | (R)—S-((E)-4-((7S,10S)-7-isopropyl-4,4-dimethyl-2,5,8,12-tetraoxo-9-oxa-16-thia-3,6,13,18-tetraazabicyclo[13.2.1]octadeca-1(17),15(18)-dien-10-yl)but-3-en-1-yl) 2-aminopropanethioate Oxalate |  | step yield (oxalate): 55% yield
4 | S-((E)-4-((7S,10S,Z)-7-isopropyl-4,4-dimethyl-2,5,8,12-tetraoxo-9-oxa-3,6,13-triaza-1(4,2)-thiazolacyclotetradecaphane-10-yl)but-3-en-1-yl) pyridine-3-carbothioate | 32% yield | 
5 | (S)—S-((E)-4-((7S,10S)-7-isopropyl-4,4-dimethyl-2,5,8,12-tetraoxo-9-oxa-16-thia-3,6,13,18-tetraazabicyclo[13.2.1]octadeca-1(17),15(18)-dien-10-yl)but-3-en-1-yl) 2-((tert-butoxycarbonyl)amino)propanethioate | 51% yield | 
6 | (S)—S-((E)-4-((7S,10S)-7-isopropyl-4,4-dimethyl-2,5,8,12-tetraoxo-9-oxa-16-thia-3,6,13,18-tetraazabicyclo[13.2.1]octadeca-1(17),15(18)-dien-10-yl)but-3-en-1-yl) 2-((tert-butoxycarbonyl)amino)-3-methylbutanethioate | 89% yield | 
7 | (S)—S-((E)-4-((7S,10S)-7-isopropyl-4,4-dimethyl-2,5,8,12-tetraoxo-9-oxa-16-thia-3,6,13,18-tetraazabicyclo[13.2.1]octadeca-1(17),15(18)-dien-10-yl)but-3-en-1-yl) 2-amino-3-methylbutanethioate Hydrochloride |  | step yield (hydrochloride): 100% yield
8 | 5-(((E)-4-((7S,10S,Z)-7-isopropyl-4,4-dimethyl-2,5,8,12-tetraoxo-9-oxa-3,6,13-triaza-1(4,2)-thiazolacyclotetradecaphane-10-yl)but-3-en-1-yl)thio)-5-oxopentanoic Acid | 41% yield | 
9 | (S)—S-((E)-4-((7S,10S)-7-isopropyl-4,4-dimethyl-2,5,8,12-tetraoxo-9-oxa-16-thia-3,6,13,18-tetraazabicyclo[13.2.1]octadeca-1(17),15(18)-dien-10-yl)but-3-en-1-yl) 2-amino-3-methylbutanethioate Benzenesulfonate |  | purity (crude or final not stated) (benzenesulfonate): 98% purity; step yield (benzenesulfonate): 90% yield
10 | (R)—S-((E)-4-((7S,10S)-7-isopropyl-4,4-dimethyl-2,5,8,12-tetraoxo-9-oxa-16-thia-3,6,13,18-tetraazabicyclo[13.2.1]octadeca-1(17),15(18)-dien-10-yl)but-3-en-1-yl) 2-((tert-butoxycarbonyl)amino)-3-methylbutanethioate | 80% yield | 
11 | (S)—S-((E)-4-((7S,10S)-7-isopropyl-4,4-dimethyl-2,5,8,12-tetraoxo-9-oxa-16-thia-3,6,13,18-tetraazabicyclo[13.2.1]octadeca-1(17),15(18)-dien-10-yl)but-3-en-1-yl) 2-aminopropanethioate Oxalate |  | step yield (oxalate): 74% yield
